The structures given here were assigned with low confidence; some may be wrong.

Sequences of proteins named here, by UniProt entry; tags and fusion partners are left off. A line that says so, or that is headed by a name, gives the form on record, which may keep a tag or linker. Residues count along the entry.
UniProt Q8TDV5, 2-335 with tags or gaps S329A/T327A limits assumed: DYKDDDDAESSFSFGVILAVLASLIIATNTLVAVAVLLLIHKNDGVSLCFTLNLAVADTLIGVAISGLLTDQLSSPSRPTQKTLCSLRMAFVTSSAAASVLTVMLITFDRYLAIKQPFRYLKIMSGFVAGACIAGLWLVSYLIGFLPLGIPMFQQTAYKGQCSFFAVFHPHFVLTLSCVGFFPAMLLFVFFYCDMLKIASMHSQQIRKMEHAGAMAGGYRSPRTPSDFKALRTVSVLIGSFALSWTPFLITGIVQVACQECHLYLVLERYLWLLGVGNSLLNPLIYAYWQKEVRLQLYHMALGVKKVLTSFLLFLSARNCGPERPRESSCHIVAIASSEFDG

For two compounds, EC50 results are on record in US8921398B2 (Boehringer Ingelheim International GmbH, priority 2011, dated 2014).

The assay addresses mutant form of the human GPR119 receptor (Homo sapiens, UniProt Q8TDV5, S329A/T327A). Kind of assay: LANCE cAMP-384 assay in HEK293 cells stably expressing a mutant form of the human GPR119 receptor. The following applies: cAMP accumulation, GPR119 stable HEK293 cells, LANCE kit, 20 min at 37° C. How it is done:
Quantitative detection of cAMP accumulation from cells expressing human GPR119 receptor is achieved using Perkin Elmer's LANCE cAMP-384 Kit (Cat#AD0264) according to the manufacturer's protocol. Briefly, HEK293 cells stably expressing a mutant form of the human GPR119 receptor as assay tool (Methionine 1 replaced with the amino acid sequence […] , and T327 & S329 changed to alanines; SEQ ID No. 1) are grown to 50-70% confluency in cell culture media (DMEM, 10% heat inactivated Fetal Bovine Serum, 50 I.U./mL penicillin, 50 μg/mL streptomycin, 10 mM HEPES, 20 μg/mL G418 Sulfate). On the day of the assay, GPR119 stable HEK293 cells are lifted from the tissue culture plate and 1000 cells/well are incubated along with various concentrations of test compounds for 20 min at 37° C. Detection Buffer (50 mM HEPES, 10 mM calcium chloride, 0.35% Triton X-100, 1 mg/mL BSA) containing cAMP-specific antibody is then added to all wells and allowed to equilibrate in the dark for 10 minutes at room temperature. Upon equilibration, Detection Buffer containing europium-labeled cAMP tracer complex is added to all wells and allowed to react for 1 hour at room temperature. After 1 hour, bound europium-labeled cAMP tracer is measured using a Perkin Elmer Envision plate reader. The quantity of cAMP generated in each well is derived from a standard curve. […]
On the technique in general: In TR-FRET formats the signal depends on donor and acceptor labels being close together.

In turn, `Cc1nccn1-c1cnc(C(=O)N(C2CC2)C2CCN(c3ncc(C(F)(F)F)cc3F)CC2)cn1` showed an EC50 of 16 nM.
The result for `Cc1nccn1-c1ncc(C(=O)N(C2CC2)[C@@H]2CCN(c3ccc(C(F)(F)F)cn3)C[C@@H]2F)cn1` (single isomer, unassigned) reads 6 nM.

The term EC50 denotes the concentration giving half of the maximal effect.
